# Primary screen of a compound library

Results are given as percent effect.
The controls that fix the scale are not given in the record; negative values are as filed.
This is an unselected part of the compounds tested.
Two or more numbers in one place are separate tests of the same structure; such repeats can differ widely.

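Growth of Mycobacterium tuberculosis over 3 days (7H9 medium with glucose and tyloxapol); the read-out is not stated. Compounds at 50 µM. Direction is inferred from retests: higher values go with more growth inhibition. About 69,000 compounds were tested under these conditions; 1.1% (about 760) showed 50% or more at least once.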

structure	effect
COC(=O)CNC(=O)c1scnc1C	-9.509
O=C1CCC(=O)c2oc3ccccc3c2N1	15.22
O=C1CCc2cc(S(=O)(=O)NC(=O)c3ccc4c(c3)COC4)ccc2N1	-27.98
O=C(NCc1cccs1)NCC(O)(c1cccs1)C1CC1 (centres unmarked)	4.533 and -19.5
Cc1cc(NCc2noc(C(C)C)n2)nc(-c2ccccc2)n1	14.8 and -3.239
CS(=O)(=O)CCCNc1cccc(COC2CCCCC2)c1	21.42
O=C(NCCCN1CCOCC1)c1ccn(-c2ccc3ccccn23)n1.O=C(O)C(F)(F)F	4.228
CCn1ccnc1CN1CCN(Cc2cc(C#N)ccc2F)CC1	8.78
Cc1cc(OCC(N)=O)ccc1NC(=O)C(C)Cc1ccccc1F (centres unmarked)	-23.04
Cn1ncc(C(=O)N2CCCC(n3cccn3)C2)c1C1CC1 (centres unmarked)	-28.33
[H][C@]12CN(Cc3ccccc3Cl)CCN1C(=O)N(Cc1ccccc1)C2	12.27 and -9.461
COc1ccc(CN2CCC3(CC(=O)N(c4cncnc4)C3)C2)cc1.O=C(O)C(F)(F)F (centres unmarked)	-2.587
CCCNS(=O)(=O)c1cnccc1N1CCN(C(C)C)CC1	-10.02
Cc1cccc(CN2C(=O)CCC23CCN(c2ncc(F)cn2)CC3)n1.O=C(O)C(F)(F)F	6.109
COc1ccc(S(=O)(=O)N2CCOC(Cn3ccnc3)C2)cc1.Cc1ccc(S(=O)(=O)O)cc1 (centres unmarked)	5.042
COc1cccc(CN2CCC(c3cc(O)nc(C)n3)C2)c1.O=C(O)CC(O)(CC(=O)O)C(=O)O (centres unmarked)	14.38
[H][C@@]12CS(=O)(=O)C[C@]1([H])N(C(=O)c1snnc1C)CCN2CC=C(C)C	-16.59
Cc1nn(C)c(C)c1NC(=O)CCn1ncc2ccccc21	-40.05
Cc1cc(N(C)C)nc(N2CCn3c(nnc3C(C)C)C2)n1	-18.79 and -10.02
CN(Cc1n[nH]c2c1CCCC2)c1nc(C2CC2)nc2c1CCNCC2	39.36
CCN(CC)C(=O)c1nnc2ccc(N3CCOCC3)cc2n1	-29.11
CCc1nc(CC(=O)N2CCCC2c2c(C)nn(C)c2OC)cs1 (centres unmarked)	14.72
CCc1[nH]c(C2(N)CCCC2)nc(=O)c1C	-12.84
Cc1nc2n(n1)CC(Nc1nc(C(F)(F)F)nc3ccccc13)CC2 (centres unmarked)	30.96
COCCCNC(=O)CN(C)C1CCCN(c2cccnn2)C1 (centres unmarked)	-17.7
CC(C)CCn1nc(CNc2ccc(Br)cc2)nc1O	47.33
COc1cccc2cc(CNCc3ccnc(N4CCCCC4)c3)oc12	19.57 and -6.588
O=C(NC(c1ccccc1)c1cccnc1)C1CC1 (centres unmarked)	7.212
Cc1ccc(CSc2nc(N)cc(NCCC(=O)N3CCCC3)n2)cc1	37.2 and 12.89
Cn1nc2c(cc1=O)CN(Cc1nc(C(C)(C)C)no1)CC2	-7.148
OC1CCN(C2CCN(Cc3cnc(-c4cccs4)nc3)CC2)CC1	-20.49 and 0.9231
O=C(O)C(F)(F)F.[H][C@@]12COC[C@]1(CNC(=O)c1ccccc1)CN(Cc1scnc1C)C2	27.4
[H][C@@]12COC[C@@H](Cc3nc(C)no3)[C@]1([H])CN(S(C)(=O)=O)C2	-12.3 and -7.411
Cc1cnn(CC2CN(Cc3nnc(-c4occc4C)o3)CCO2)c1 (centres unmarked)	-9.055
Cc1ncnc2c1CCN(C(=O)CN(C)C)CC2.O=C(O)C(F)(F)F	-9.667 and -14.15
CCc1ncc2c(n1)CN(CC(=O)NCCOc1ccccc1)CC2	11.41
CCC(CC)CS(=O)(=O)NC(=O)C1CCCC1	-20.3
Cc1cc(C)n(C2CN(CC(O)c3ccc(C(F)(F)F)cc3)C2)n1 (centres unmarked)	-1.002
CN1CC(=O)N(C2CCNCC2)Cc2c(NC3CCC3)ncnc21	8.808
CC(C)(C)OC(=O)Cn1cccc(S(=O)(=O)N2CCCC2)c1=O	-18.25
O=C(O)C(F)(F)F.[H][C@@]12CCN(Cc3cccs3)C[C@]1([H])O[C@H](C(=O)NC1CCC1)C2	-5.183
Cc1cnc(NC(=O)c2csc(NCC(C)C)n2)s1	59.28
CCn1nccc1CNC(=O)CCC1CCCC1	5.241
O=C(Nc1cccnc1)Nc1ccn(CC(F)F)n1	-3.043
Cc1cc(C)n(C2CCCN(C(=O)c3ccc(N(C)C)nn3)C2)n1 (centres unmarked)	-15.38
O=C(O)C(F)(F)F.[H][C@@]12CCN(Cc3ccc(F)cc3)[C@]1([H])CC[C@H](C(=O)N1CCCO1)O2	1.705 and 7.861
O=C1CCC(C(=O)Nc2ccc(=O)n(Cc3ccccc3Cl)c2)N1 (centres unmarked)	7.966
CCCC(=O)NCCCn1ncc2c(C)cccc21	-39.54
CC(C)Cc1noc(CN2CCN(C(=O)c3ccccc3F)CC2)n1	-63.76 and 3.125
C[C@]1(O)CN(Cc2cscn2)CC[C@@H]1Oc1cccc(F)c1	-17.28
CCCc1ccc(S(=O)(=O)NC(=O)CCC2CCCO2)cc1 (centres unmarked)	-18.15
COCC(=O)N1CCC2(CC1)CCN(Cc1ccccn1)C2=O.O=C(O)C(F)(F)F	-11.44
COCc1noc(Cn2ncn3cccc3c2=O)n1	-27.72
COCc1ncn2c1CN(S(=O)(=O)Cc1ccc(C)cc1)CC2.O=C(O)C(F)(F)F	-10.26 and -3.611
CCn1ncnc1C1CC(=O)NCc2nc3ccccn3c21 (centres unmarked)	-18.12
CN(CC(N)=O)Cc1csc(-c2ccc(F)cc2)n1	-16.64
Cn1ccnc1CN1CCN(CC(O)c2ccco2)CC1 (centres unmarked)	-21.98
Cc1cc2c(c(=O)n1CCC(=O)O)C=CC(C)(C)O2	10.69
COCCNC(=O)CN1CCN(c2nc3cc(C)ccc3o2)CC1	-10.95
NS(=O)(=O)c1ccc(F)c(C(=O)NCCSc2ccccn2)c1	-11.72
O=C([C@@H]1CCCO1)N1CCC(Cn2cc(-c3ccsc3)nn2)CC1	4.817 and -16.49
CC(c1ncc(-c2ccccc2)o1)N1CCN(C(=O)C(C)(C)C)CC1 (centres unmarked)	9.928
Cc1cc(C)n(CCC(=O)N2CCCC(c3cc(C(N)=O)[nH]n3)C2)n1 (centres unmarked)	-5.004
CCc1nnsc1C(=O)N1CCCC1c1c(C)nn(C)c1OC (centres unmarked)	-2.036
CCn1ccnc1C1CCCN(c2nccc3ccccc23)C1 (centres unmarked)	-24.07 and 7.449
Cc1cnn(CCCNC(=O)NCCC(=O)Nc2ccccc2)c1	0.3775
Cc1cc(C(=O)NCc2cc(C)oc2C)no1	20.75
COc1ccccc1C(C)(C)NC(=O)c1ccc(F)c(NC(C)=O)c1	-7.828
[H][C@@]12CCN(Cc3nccs3)C[C@@]1([H])O[C@H](C)C2	0.9498 and -14.94
O=C(O)C(F)(F)F.O=C([C@H]1CCCO1)N1CCOC2(CCCN(c3ncccc3F)C2)C1 (some centres unmarked)	14.82
CCc1cc(CN(C)C(=O)CN2CC(Cc3ccccc3)CC2=O)on1 (centres unmarked)	12.94
N#Cc1ccc(C(=O)N(Cc2ccncc2)C2CC2)cc1	28.34
CC(=O)Nc1cccc2c1ccn2CC(=O)NC(C)C	19.89
O=C(O)C(F)(F)F.O=C(O)C(F)(F)F.O=C(O)C(F)(F)F.[H][C@@]12CN(Cc3cccnc3)C[C@]1([H])CN(S(=O)(=O)c1cn(C)cn1)C2	-10.84 and -8.134
Cc1cc(C)n(CC2CCCCN2C(=O)c2cnn(C)c2)n1 (centres unmarked)	-10.96
Cn1cc(-c2nc(CN3CCN(c4nccs4)CC3)cs2)cn1	19.85
CC(C)N(C)Cc1cncc2c1CCN(Cc1ccoc1)C2.Cl.Cl.Cl	2.086

8 of the entries, repeated:

structure	effect
CCn1ccnc1CN1CCN(Cc2cc(C#N)ccc2F)CC1	8.78
Cc1cnc(NC(=O)c2csc(NCC(C)C)n2)s1	59.28
Cc1cc(C)n(CCC(=O)N2CCCC(c3cc(C(N)=O)[nH]n3)C2)n1 (centres unmarked)	-5.004
O=C(O)C(F)(F)F.O=C(O)C(F)(F)F.O=C(O)C(F)(F)F.[H][C@@]12CN(Cc3cccnc3)C[C@]1([H])CN(S(=O)(=O)c1cn(C)cn1)C2	-10.84 and -8.134
Cn1nc2c(cc1=O)CN(Cc1nc(C(C)(C)C)no1)CC2	-7.148
NS(=O)(=O)c1ccc(F)c(C(=O)NCCSc2ccccn2)c1	-11.72
COCC(=O)N1CCC2(CC1)CCN(Cc1ccccn1)C2=O.O=C(O)C(F)(F)F	-11.44
CCN(CC)C(=O)c1nnc2ccc(N3CCOCC3)cc2n1	-29.11

Measurements from “University of Dundee, Small-Polar-MMV Screening Library” (2021), ChEMBL document CHEMBL3988442.